Data published in the supplement of paper PMC10849652.
This is one part of the list.

By UniProt entry, the sequences of proteins in these tests, tags left out. Where a name states a change or a piece, a line headed by the entry shows the natural chain unless it says otherwise.
UniProt Q6P158: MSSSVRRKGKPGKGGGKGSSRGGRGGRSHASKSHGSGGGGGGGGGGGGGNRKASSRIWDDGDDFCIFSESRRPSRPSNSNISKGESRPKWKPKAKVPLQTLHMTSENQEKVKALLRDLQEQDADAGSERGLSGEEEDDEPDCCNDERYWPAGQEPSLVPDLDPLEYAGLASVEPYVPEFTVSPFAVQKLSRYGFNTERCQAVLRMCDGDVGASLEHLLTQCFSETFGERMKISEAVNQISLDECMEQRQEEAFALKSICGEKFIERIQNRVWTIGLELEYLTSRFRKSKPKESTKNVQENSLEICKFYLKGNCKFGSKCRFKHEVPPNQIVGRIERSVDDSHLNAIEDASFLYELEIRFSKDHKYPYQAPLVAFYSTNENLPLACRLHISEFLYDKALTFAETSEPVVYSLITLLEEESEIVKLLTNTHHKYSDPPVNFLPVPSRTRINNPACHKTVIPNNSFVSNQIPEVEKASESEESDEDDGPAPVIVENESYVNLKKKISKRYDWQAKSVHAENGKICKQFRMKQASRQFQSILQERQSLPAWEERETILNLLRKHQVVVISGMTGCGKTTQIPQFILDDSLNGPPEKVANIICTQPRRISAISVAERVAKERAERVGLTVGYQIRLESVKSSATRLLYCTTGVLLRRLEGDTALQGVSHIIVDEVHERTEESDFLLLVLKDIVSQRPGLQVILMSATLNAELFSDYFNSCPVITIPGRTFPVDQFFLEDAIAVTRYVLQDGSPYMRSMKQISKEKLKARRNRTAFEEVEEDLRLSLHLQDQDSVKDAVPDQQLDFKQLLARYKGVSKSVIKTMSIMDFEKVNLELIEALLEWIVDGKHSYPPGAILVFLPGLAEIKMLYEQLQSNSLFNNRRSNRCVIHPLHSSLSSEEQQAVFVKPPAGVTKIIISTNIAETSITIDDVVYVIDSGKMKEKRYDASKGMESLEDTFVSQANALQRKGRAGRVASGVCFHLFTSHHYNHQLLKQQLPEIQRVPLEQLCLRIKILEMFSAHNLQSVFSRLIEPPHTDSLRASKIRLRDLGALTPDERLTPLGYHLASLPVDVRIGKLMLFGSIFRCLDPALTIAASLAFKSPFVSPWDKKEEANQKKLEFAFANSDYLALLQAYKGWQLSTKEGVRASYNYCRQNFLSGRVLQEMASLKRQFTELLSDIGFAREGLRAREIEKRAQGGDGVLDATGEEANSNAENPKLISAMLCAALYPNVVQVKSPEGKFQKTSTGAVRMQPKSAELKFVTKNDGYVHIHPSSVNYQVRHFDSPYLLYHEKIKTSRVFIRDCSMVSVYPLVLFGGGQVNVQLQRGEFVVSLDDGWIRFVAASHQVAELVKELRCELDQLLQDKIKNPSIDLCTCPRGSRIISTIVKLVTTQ
UniProt O75911: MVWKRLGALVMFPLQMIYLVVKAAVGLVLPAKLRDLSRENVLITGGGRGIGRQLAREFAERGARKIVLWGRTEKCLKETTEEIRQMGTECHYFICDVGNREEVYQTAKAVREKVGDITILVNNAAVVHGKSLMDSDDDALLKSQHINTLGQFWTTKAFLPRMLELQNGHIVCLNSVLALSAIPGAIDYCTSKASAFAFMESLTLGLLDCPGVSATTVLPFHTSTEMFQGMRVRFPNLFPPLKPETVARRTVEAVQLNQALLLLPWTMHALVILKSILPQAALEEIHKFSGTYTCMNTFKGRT
UniProt Q9BTC0, whole entry, looked up: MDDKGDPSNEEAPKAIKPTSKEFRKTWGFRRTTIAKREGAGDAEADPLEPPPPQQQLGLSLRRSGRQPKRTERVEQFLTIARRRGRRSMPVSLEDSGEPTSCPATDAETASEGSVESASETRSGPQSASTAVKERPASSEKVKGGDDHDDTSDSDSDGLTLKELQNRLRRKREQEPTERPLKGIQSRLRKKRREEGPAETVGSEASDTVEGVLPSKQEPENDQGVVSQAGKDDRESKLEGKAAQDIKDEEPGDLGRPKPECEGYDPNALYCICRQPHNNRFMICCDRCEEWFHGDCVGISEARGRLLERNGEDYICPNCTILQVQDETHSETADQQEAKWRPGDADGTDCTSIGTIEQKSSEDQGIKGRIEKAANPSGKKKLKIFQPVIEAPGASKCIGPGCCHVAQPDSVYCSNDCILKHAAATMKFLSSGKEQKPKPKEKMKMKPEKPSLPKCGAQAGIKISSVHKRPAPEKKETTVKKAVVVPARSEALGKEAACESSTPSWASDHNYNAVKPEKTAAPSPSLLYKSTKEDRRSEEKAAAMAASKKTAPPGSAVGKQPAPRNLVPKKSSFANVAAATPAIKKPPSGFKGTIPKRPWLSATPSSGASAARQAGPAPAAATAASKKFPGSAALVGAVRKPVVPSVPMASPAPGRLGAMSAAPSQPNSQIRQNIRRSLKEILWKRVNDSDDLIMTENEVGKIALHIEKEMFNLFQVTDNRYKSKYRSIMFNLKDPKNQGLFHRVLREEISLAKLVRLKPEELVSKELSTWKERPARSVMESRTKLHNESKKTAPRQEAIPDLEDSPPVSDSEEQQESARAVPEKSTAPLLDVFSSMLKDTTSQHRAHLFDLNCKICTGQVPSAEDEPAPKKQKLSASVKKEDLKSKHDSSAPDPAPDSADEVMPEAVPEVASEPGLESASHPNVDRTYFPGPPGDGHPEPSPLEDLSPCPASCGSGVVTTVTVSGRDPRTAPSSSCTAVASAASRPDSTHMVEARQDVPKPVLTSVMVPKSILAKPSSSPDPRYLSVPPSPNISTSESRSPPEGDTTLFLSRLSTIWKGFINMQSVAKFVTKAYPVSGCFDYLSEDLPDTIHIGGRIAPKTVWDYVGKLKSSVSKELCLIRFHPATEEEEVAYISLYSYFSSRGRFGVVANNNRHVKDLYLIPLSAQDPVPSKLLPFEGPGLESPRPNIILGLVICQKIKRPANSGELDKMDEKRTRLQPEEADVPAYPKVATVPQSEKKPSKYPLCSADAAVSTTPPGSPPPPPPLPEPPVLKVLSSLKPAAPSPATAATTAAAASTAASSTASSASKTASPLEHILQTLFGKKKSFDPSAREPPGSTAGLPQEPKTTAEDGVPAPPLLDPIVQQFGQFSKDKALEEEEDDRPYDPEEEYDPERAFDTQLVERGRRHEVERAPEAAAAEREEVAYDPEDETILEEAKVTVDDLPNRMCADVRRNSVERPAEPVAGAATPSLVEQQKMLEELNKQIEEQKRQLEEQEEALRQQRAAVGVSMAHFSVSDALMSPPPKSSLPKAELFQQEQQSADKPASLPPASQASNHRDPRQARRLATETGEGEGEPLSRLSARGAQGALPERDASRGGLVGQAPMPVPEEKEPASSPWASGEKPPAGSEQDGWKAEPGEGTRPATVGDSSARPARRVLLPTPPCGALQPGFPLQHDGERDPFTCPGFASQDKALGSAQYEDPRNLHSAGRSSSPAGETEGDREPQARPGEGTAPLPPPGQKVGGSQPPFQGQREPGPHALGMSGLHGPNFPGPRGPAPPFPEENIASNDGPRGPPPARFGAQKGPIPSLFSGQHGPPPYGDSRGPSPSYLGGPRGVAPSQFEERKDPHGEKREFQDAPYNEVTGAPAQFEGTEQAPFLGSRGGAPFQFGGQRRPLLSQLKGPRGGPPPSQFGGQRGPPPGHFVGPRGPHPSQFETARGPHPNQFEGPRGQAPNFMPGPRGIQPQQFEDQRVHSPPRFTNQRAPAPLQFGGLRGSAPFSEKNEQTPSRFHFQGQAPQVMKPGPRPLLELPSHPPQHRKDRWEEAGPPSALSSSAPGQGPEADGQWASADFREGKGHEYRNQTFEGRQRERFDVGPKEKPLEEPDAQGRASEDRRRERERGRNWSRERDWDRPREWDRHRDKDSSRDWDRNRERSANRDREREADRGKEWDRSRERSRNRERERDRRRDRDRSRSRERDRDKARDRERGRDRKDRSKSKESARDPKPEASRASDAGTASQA
UniProt P09622, whole entry, looked up: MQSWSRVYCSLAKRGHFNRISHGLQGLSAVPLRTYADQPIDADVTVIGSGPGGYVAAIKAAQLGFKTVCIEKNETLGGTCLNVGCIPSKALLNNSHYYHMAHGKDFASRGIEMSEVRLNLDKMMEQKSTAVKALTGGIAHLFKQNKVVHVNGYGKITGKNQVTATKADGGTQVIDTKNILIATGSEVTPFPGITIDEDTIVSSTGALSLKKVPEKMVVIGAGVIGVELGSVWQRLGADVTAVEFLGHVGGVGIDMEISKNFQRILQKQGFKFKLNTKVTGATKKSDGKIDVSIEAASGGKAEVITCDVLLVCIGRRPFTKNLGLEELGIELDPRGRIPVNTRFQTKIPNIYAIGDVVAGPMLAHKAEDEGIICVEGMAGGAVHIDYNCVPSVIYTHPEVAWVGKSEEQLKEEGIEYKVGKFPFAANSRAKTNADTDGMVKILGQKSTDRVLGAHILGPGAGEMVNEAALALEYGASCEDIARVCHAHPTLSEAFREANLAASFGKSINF
UniProt O76075: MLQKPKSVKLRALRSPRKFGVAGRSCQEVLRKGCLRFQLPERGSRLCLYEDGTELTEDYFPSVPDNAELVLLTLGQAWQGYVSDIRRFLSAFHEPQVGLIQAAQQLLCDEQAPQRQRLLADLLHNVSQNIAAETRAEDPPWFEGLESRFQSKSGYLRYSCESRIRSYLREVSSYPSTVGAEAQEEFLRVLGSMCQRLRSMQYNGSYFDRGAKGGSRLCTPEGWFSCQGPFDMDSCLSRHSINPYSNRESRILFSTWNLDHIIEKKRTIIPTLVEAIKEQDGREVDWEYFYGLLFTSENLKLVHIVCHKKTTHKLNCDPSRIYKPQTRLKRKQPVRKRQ
UniProt Q8WXX5: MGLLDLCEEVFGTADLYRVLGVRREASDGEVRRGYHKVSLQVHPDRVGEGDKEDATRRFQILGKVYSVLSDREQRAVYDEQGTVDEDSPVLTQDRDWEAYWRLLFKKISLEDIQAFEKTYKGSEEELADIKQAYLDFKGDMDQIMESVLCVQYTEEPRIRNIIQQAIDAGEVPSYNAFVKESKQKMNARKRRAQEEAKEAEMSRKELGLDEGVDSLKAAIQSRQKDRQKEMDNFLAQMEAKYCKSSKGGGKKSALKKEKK
UniProt Q9NSV4, whole entry, looked up: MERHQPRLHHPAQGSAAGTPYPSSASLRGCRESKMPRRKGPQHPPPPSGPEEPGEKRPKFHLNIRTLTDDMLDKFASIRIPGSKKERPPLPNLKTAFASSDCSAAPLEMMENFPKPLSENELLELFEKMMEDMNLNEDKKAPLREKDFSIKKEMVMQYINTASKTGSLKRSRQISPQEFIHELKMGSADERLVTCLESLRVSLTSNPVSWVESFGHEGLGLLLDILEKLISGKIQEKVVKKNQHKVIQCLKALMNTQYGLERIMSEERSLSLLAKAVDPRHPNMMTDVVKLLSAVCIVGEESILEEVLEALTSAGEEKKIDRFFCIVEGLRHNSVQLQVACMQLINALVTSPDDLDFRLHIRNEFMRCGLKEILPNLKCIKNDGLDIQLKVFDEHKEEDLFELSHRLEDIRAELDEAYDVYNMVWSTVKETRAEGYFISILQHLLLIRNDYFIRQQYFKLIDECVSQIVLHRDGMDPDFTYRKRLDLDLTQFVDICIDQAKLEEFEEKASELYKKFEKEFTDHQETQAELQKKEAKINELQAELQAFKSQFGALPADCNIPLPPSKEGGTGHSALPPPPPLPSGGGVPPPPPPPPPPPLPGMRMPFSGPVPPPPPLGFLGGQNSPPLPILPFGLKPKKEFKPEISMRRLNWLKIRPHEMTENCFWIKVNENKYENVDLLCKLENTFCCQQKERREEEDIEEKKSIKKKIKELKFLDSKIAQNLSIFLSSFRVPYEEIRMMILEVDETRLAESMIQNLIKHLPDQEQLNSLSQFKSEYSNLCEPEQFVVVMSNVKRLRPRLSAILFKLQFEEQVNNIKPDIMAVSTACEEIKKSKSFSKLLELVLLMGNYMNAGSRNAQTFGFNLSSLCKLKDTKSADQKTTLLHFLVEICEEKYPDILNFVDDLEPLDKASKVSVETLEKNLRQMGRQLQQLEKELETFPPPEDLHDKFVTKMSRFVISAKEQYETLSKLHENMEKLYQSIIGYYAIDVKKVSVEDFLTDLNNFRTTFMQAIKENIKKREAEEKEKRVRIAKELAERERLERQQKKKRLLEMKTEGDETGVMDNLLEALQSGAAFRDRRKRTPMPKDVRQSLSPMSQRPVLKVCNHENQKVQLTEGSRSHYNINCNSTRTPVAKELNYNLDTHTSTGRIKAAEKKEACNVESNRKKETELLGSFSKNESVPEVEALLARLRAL
UniProt Q9NVM6: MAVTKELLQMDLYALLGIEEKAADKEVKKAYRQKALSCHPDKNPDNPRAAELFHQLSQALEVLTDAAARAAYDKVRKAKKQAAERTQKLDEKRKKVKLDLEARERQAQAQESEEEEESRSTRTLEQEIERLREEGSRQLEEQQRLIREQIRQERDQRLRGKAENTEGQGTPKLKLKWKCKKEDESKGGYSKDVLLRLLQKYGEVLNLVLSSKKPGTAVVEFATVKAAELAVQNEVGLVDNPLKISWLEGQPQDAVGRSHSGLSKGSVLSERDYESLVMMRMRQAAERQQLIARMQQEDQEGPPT

Assays:
Test in all cases: log2 fold change, soluble protein after heating vs DMSO (PISA); higher = thermal stabilisation; K562 lysate, 10 uM; active = over 0.2 and 3.5 SD of the protein, either way, in both replicates (recomputed)
erlotinib = compound: C#Cc1cccc(Nc2ncnc3cc(OCCOC)c(OCCOC)cc23)c1 [erlotinib]
Procedure, shortened: (§1)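 Thermal stability, expressed as log-two fold change relative to solvent controls, is given from duplicates. Crude K562 extract in PBS pH 7.4 with 1 mM MgCl2, at 1 mg/mL protein, was treated with 10 μM compound for 30 min and heated in aliquots for 3 min across 48°C-58°C. After pooling, adjustment to 0.5% NP-40 at 4°C and centrifugation at 21,000xg for 90 min, supernatant protein was measured by TMTpro 16plex LC-MS/MS with channel sums equalised.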

[1] = compound: C/C(=N\NC(=O)C1=CC(=CC=C1)S(=O)(=O)N2CCOCC2)/C3=C(C=CC(=C3)Cl)O
Procedure, shortened: as §1

[2] = compound: C1=CC(=CC=C1C2=NC3=C(N2)C=C(C=C3)C(=O)N)OC4=CC=C(C=C4)Cl
Procedure, shortened: as §1

[3] = compound: C1=CC2=C(C=CC(=C2)/C=C\3/C(=O)NC(=NCC4=CC=CS4)S3)N=C1
Procedure, shortened: as §1

[4] = compound: C1=CC2=NC=CN=C2C=C1/C=C/3\C(=O)NC(=O)S3
Procedure, shortened: as §1

[5] = compound: C1=CC=C(C=C1)C2=NC(=C(N2)C3=CC=NC=C3)C4=CC(=C(C=C4)Cl)O
Procedure, shortened: as §1

[6] = compound: C1=CC=C2C(=C1)C3=NNC4=CC=CC(=C43)C2=O
Procedure, shortened: as §1

[7] = compound: C1CCN(C1)C(=O)NC2=CC=CC(=C2)NC3=NC=C(C(=N3)NCCC4=CN=CN4)Br
Procedure, shortened: as §1

[8] = compound: C1CN(CCC1(CC2=CC=C(C=C2)Cl)N)C3=NC=NC4=C3C=CN4
Procedure, shortened: as §1

IRAK-1-4 Inhibitor I = compound: C1COCCN1CCN2C3=CC=CC=C3N=C2NC(=O)C4=CC(=CC=C4)[N+](=O)[O-] [IRAK-1-4 Inhibitor I]
Procedure, shortened: as §1

ibrutinib = compound: C=CC(=O)N1CCC[C@@H](n2nc(-c3ccc(Oc4ccccc4)cc3)c3c(N)ncnc32)C1 [ibrutinib]
Procedure, shortened: as §1

[9] = compound: CC(=O)c1cnc2ccc(-c3cc(Cl)c(O)c(Cl)c3)nc2c1N[C@H]1CC[C@H](CN(C)C)CC1
Procedure, shortened: as §1

ralimetinib = compound: CC(C)(C)Cn1c(N)nc2ccc(-c3[nH]c(C(C)(C)C)nc3-c3ccc(F)cc3)nc21 [ralimetinib]
Procedure, shortened: as §1

[10] = compound: CC(C)(O)CC(=O)NCCn1ccc2ncnc(Nc3ccc(Oc4cccc(C(F)(F)F)c4)c(Cl)c3)c21
Procedure, shortened: as §1

[11] = compound: CC(C)C1=C2N=C(C=C(N2N=C1)NCC3=CC=CC=C3)NCCCCCCN
Procedure, shortened: as §1

[12] = compound: CC1=C(C(CC(=O)N1)C2=CC=C(C=C2)C(F)(F)F)C(=O)NC3=C(C=C4C(=C3)C=NN4)F
Procedure, shortened: as §1

[13] = compound: CC1=C(C2=C(C=C1)C(=O)C3=CC=CC=C3N2CCCN)C
Procedure, shortened: as §1

[14] = compound: CC1=C(C=C(C=C1)NC(=O)C2=CC(=CC=C2)C(C)(C)C#N)NC3=CC4=C(C=C3)N=CN(C4=O)C
Procedure, shortened: as §1

[15] = compound: CC1=C(C=C(C=C1)NC(=O)C2=CC(=CC=C2)N(C)C)NC(=O)C3=CC=C(C=C3)O
Procedure, shortened: as §1

[16] = compound: CC1=CC=C(C=C1)SC2=C3C=C(SC3=CN=C2)C(=O)N
Procedure, shortened: as §1

Measured: log2 fold change

DMD (UniProt P11532)
inactive: erlotinib -0.012 | [1] 0.013 | [2] 0.027 | [3] -0.015 | [4] -0.015 | [5] -0.008 | [6] 0.004 | [7] -0.006 | [8] -0.001 | IRAK-1-4 Inhibitor I 0.017 | ibrutinib 0.038 | [9] 0.003 | ralimetinib 0.018 | [10] -0.022 | [11] 0.002 | [12] 0.013 | [13] 0.016 | [14] -0.004 | [15] -0.01 | [16] -0.006

DHX57 (UniProt Q6P158)
inactive: erlotinib -0.011 | [1] 0.033 | [2] -0.021 | [3] 0.028 | [4] -0.016 | [5] 0.094 | [6] -0.011 | [7] 0.014 | [8] 0.04 | IRAK-1-4 Inhibitor I 0.01 | ibrutinib 0.025 | [9] -0.014 | ralimetinib 0.027 | [10] -0.072 | [11] 0.061 | [12] 0.026 | [13] -0.011 | [14] 0.017 | [15] -0.04 | [16] 0.036

DNAJC19 (UniProt Q96DA6)
inactive: erlotinib 0.013 | [1] -0.033 | [2] -0.042 | [3] -0.01 | [4] 0.025 | [5] -0.023 | [6] -0.006 | [7] 0.028 | [8] 0.005 | IRAK-1-4 Inhibitor I 0.005 | ibrutinib 0.001 | [9] -0.013 | ralimetinib -0.025 | [10] 0.016 | [11] 0.001 | [12] 0.016 | [13] 0.014 | [14] 0.023 | [15] -0.016 | [16] 0.001

DHRS3 (UniProt O75911)
inactive: erlotinib 0.056 | [1] 0.08 | [2] 0.047 | [3] -0.008 | [4] -0.044 | [5] 0.03 | [6] -0.028 | [7] -0.007 | [8] 0.016 | IRAK-1-4 Inhibitor I 0.046 | ibrutinib 0.064 | [9] -0.07 | ralimetinib 0.048 | [10] -0.023 | [11] 0.034 | [12] -0.001 | [13] -0.069 | [14] -0.015 | [15] -0.046 | [16] 0.045

DIDO1 (UniProt Q9BTC0)
inactive: erlotinib 0.024 | [1] 0.003 | [2] -0.01 | [3] -0.037 | [4] -0.044 | [5] -0.02 | [6] -0.011 | [7] -0.009 | [8] 0.005 | IRAK-1-4 Inhibitor I 0.016 | ibrutinib 0.107 | [9] 0.014 | ralimetinib 0.041 | [10] 0.013 | [11] -0.013 | [12] 0 | [13] -0.019 | [14] -0.015 | [15] 0.012 | [16] -0.015

DLD (UniProt P09622)
inactive: erlotinib 0.014 | [1] 0 | [2] 0.022 | [3] -0.01 | [4] 0.025 | [5] 0.004 | [6] 0.007 | [7] 0.008 | [8] 0.006 | IRAK-1-4 Inhibitor I 0.026 | ibrutinib 0.003 | [9] 0.003 | ralimetinib -0.006 | [10] -0.016 | [11] -0.013 | [12] -0.03 | [13] -0.006 | [14] 0.049 | [15] -0.007 | [16] 0.004

DFFB (UniProt O76075)
inactive: erlotinib -0.055 | [1] 0.062 | [2] 0.071 | [3] 0.048 | [4] 0.084 | [5] 0.047 | [6] 0 | [7] 0.013 | [8] -0.019 | IRAK-1-4 Inhibitor I 0.008 | ibrutinib 0.076 | [9] -0.01 | ralimetinib 0.054 | [10] -0.068 | [11] -0.027 | [12] 0.044 | [13] 0.08 | [14] 0.033 | [15] -0.07 | [16] -0.039

DHX30 isoform 2 (UniProt Q7L2E3)
inactive: erlotinib 0.013 | [1] 0.006 | [2] 0 | [3] 0.019 | [4] 0.011 | [5] 0 | [6] 0 | [7] 0.003 | [8] 0.045 | IRAK-1-4 Inhibitor I 0.005 | ibrutinib -0.008 | [9] -0.033 | ralimetinib 0.004 | [10] -0.02 | [11] -0.002 | [12] 0 | [13] -0.02 | [14] 0.012 | [15] 0.034 | [16] -0.008

DNAJC9 (UniProt Q8WXX5)
inactive: erlotinib -0.015 | [1] 0.02 | [2] 0.012 | [3] 0 | [4] -0.01 | [5] 0.012 | [6] 0.056 | [7] 0.046 | [8] 0.004 | IRAK-1-4 Inhibitor I -0.003 | ibrutinib 0.013 | [9] 0.005 | ralimetinib 0.023 | [10] 0.024 | [11] 0.017 | [12] 0.013 | [13] 0.005 | [14] 0.023 | [15] 0.005 | [16] 0.003

DNAJC21 isoform 3 (UniProt Q5F1R6)
inactive: erlotinib 0.017 | [1] -0.01 | [2] 0.031 | [3] 0.046 | [4] -0.008 | [5] 0.032 | [6] -0.008 | [7] 0.023 | [8] 0.026 | IRAK-1-4 Inhibitor I -0.021 | ibrutinib 0.044 | [9] 0.003 | ralimetinib -0.009 | [10] -0.016 | [11] 0.017 | [12] 0.051 | [13] -0.016 | [14] -0.047 | [15] -0.021 | [16] 0.009

DNAJC3 (UniProt Q13217)
inactive: erlotinib -0.002 | [1] -0.057 | [2] 0.06 | [3] 0.008 | [4] -0.021 | [5] -0.032 | [6] -0.02 | [7] -0.033 | [8] -0.047 | IRAK-1-4 Inhibitor I 0.011 | ibrutinib 0.009 | [9] -0.004 | ralimetinib -0.022 | [10] 0.007 | [11] -0.021 | [12] 0.024 | [13] 0.006 | [14] -0.011 | [15] -0.054 | [16] -0.018

DHX35 (UniProt Q9H5Z1)
inactive: erlotinib 0.016 | [1] 0.095 | [2] -0.032 | [3] -0.146 | [4] 0.001 | [5] 0.026 | [6] -0.012 | [7] -0.021 | [8] -0.009 | IRAK-1-4 Inhibitor I -0.025 | ibrutinib -0.018 | [9] -0.04 | ralimetinib 0.045 | [10] -0.059 | [11] -0.081 | [12] 0.06 | [13] -0.09 | [14] 0.146 | [15] 0.015 | [16] 0.092

DOCK10 (UniProt Q96BY6)
inactive: erlotinib -0.23 | [1] -0.191 | [2] -0.03 | [3] 0.007 | [4] -0.094 | [5] -0.048 | [6] -0.034 | [7] -0.064 | [8] -0.028 | IRAK-1-4 Inhibitor I -0.017 | ibrutinib -0.151 | [9] 0.02 | ralimetinib -0.001 | [10] -0.008 | [11] -0.084 | [12] -0.161 | [13] 0.008 | [14] 0.246 | [15] -0.045 | [16] 0.022

DIAPH3 (UniProt Q9NSV4)
inactive: erlotinib 0.042 | [1] 0.07 | [2] -0.022 | [3] 0.05 | [4] 0.074 | [5] 0.045 | [6] -0.066 | [7] -0.04 | [8] -0.082 | IRAK-1-4 Inhibitor I -0.041 | ibrutinib 0.012 | [9] 0.093 | ralimetinib 0.086 | [10] -0.032 | [11] -0.066 | [12] 0.043 | [13] 0.005 | [14] -0.011 | [15] 0.038 | [16] -0.035

DMXL2 isoform 3 (UniProt Q8TDJ6)
inactive: erlotinib 0.046 | [1] -0.039 | [2] -0.007 | [3] 0.04 | [4] 0.082 | [5] -0.051 | [6] -0.053 | [7] -0.04 | [8] 0.025 | IRAK-1-4 Inhibitor I -0.005 | ibrutinib -0.033 | [9] -0.012 | ralimetinib 0.006 | [10] -0.002 | [11] -0.039 | [12] 0.053 | [13] -0.013 | [14] -0.01 | [15] 0.048 | [16] 0.044

Quoted from above (three entries):
DHX35 (UniProt Q9H5Z1)
inactive: erlotinib 0.016 | [1] 0.095 | [2] -0.032 | [3] -0.146 | [4] 0.001 | [5] 0.026 | [6] -0.012 | [7] -0.021 | [8] -0.009 | IRAK-1-4 Inhibitor I -0.025 | ibrutinib -0.018 | [9] -0.04 | ralimetinib 0.045 | [10] -0.059 | [11] -0.081 | [12] 0.06 | [13] -0.09 | [14] 0.146 | [15] 0.015 | [16] 0.092

DOCK10 (UniProt Q96BY6)
inactive: erlotinib -0.23 | [1] -0.191 | [2] -0.03 | [3] 0.007 | [4] -0.094 | [5] -0.048 | [6] -0.034 | [7] -0.064 | [8] -0.028 | IRAK-1-4 Inhibitor I -0.017 | ibrutinib -0.151 | [9] 0.02 | ralimetinib -0.001 | [10] -0.008 | [11] -0.084 | [12] -0.161 | [13] 0.008 | [14] 0.246 | [15] -0.045 | [16] 0.022

DIAPH3 (UniProt Q9NSV4)
inactive: erlotinib 0.042 | [1] 0.07 | [2] -0.022 | [3] 0.05 | [4] 0.074 | [5] 0.045 | [6] -0.066 | [7] -0.04 | [8] -0.082 | IRAK-1-4 Inhibitor I -0.041 | ibrutinib 0.012 | [9] 0.093 | ralimetinib 0.086 | [10] -0.032 | [11] -0.066 | [12] 0.043 | [13] 0.005 | [14] -0.011 | [15] 0.038 | [16] -0.035

(next part)

DNAJC17 (UniProt Q9NVM6)
inactive: erlotinib -0.011 | [1] 0.017 | [2] 0.002 | [3] -0.016 | [4] -0.016 | [5] -0.028 | [6] -0.01 | [7] -0.013 | [8] -0.007 | IRAK-1-4 Inhibitor I -0.011 | ibrutinib 0.029 | [9] 0.032 | ralimetinib 0.098 | [10] 0.061 | [11] -0.025 | [12] 0.02 | [13] 0.005 | [14] -0.033 | [15] 0.028 | [16] -0.011
